Literature values as cited in patent US9457010B2, “Compositions for use in treating or preventing metabolic stress-induced lung injury and methods for increasing physical capacity of mammalian livestock” (Nutri-fit GmbH & Co. KG, priority 2009, dated 2016).
At least one structure is not confirmed: it was looked up by name or label, or the drawing left a doubt.

Legend:
[1] = test system: pulmonary function; settings: for pulmonary dynamic compliance after endotoxin infusion: 3 weeks diet, endotoxin 80 ng/kg/min over 30 min, assessed 10 min after end of infusion; for Resting pulmonary dynamic compliance: after 3 weeks on diet (40% fat), before endotoxin
[2] = test system: pulmonary function; settings: 3 weeks isocaloric diet; before and after endotoxin

In the case of `CCCCCCCCCCCCCCCC(=O)O` [palmitate], the “pulmonary dynamic compliance after endotoxin infusion” value [1] is given as 65±7 ml/cm H2O and the “Resting pulmonary dynamic compliance” value [1] is given as 111±13 ml/cm H2O.

For `CCCCC/C=C\C/C=C\CCCCCCCC(=O)O` [linoleate], the “pulmonary dynamic compliance after endotoxin infusion” value [1] is listed as 43±5 ml/cm H2O, the “Resting pulmonary dynamic compliance” value [1] is listed as 73±11 ml/cm H2O and the “Lung compliance compared with the palmitate group” value [2] is listed as “reduced”.
